Results are given in words; binding and its absence hold for the method and conditions named. Binding seen in cells or lysates may run through a third protein. Binding can be weak; no strength is given.
Target: HA-tagged LAPTM4B (Lysosome Associated Protein Transmembrane 4B) (UniProt Q86VI4)
Experiment: co-IP; immunoprecipitation with HA antibody from HA-tagged LAPTM4B stably expressing cells and control cells; blot with antibody against RhoA

The chains behind the UniProt entries cited, without tags or fusion partners. Where a name states a change or a piece, a line headed by the entry shows the natural chain unless it says otherwise.
UniProt Q86VI4: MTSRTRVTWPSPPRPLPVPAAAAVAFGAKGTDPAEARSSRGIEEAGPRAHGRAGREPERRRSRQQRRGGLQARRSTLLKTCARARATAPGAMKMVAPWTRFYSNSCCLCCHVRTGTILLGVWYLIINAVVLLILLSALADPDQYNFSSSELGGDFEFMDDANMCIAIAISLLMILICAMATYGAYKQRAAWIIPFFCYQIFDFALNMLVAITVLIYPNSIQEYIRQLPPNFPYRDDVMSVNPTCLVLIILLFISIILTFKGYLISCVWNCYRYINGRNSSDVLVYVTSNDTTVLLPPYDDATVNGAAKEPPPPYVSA
UniProt P61586: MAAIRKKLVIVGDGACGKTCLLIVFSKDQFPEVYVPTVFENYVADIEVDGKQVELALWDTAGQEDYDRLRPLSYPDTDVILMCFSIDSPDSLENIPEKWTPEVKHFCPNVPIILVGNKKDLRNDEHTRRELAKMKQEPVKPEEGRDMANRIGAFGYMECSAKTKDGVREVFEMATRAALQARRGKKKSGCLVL

RhoA (from UniProt P61586 1-193) was tested, and the binding was “binds”.
